At least one compound was matched to its structure with a doubt left.
What was measured:
Tg2576 AD mice = assay: Abeta plaque load by immunohistology (BAM-10) in Tg2576 mice; assay type: in vivo, mouse; settings: 18-month-old Tg2576 mice, 8 mg/kg/d in drinking water for 6 months, vs untreated Tg2576 controls
Source text: For a genetic model of familial AD (FAD), Tg2576 mice (Taconic Biosciences, Rensselaer, N.Y., USA) were used with neuron-specific overexpression of human APPSwe, i.e the Swedish mutation of APP695 isolated from a Swedish family with FAD featuring the double mutation K670N/M671L (Hsiao et al., Science 274, 99-103 (1996)). As a genetic model of tauopathy, the Tg-TauP301L mice (Model 2508, Taconic Biosciences, Rensselaer, N.Y., USA) with neuron-specific expression of the most common FTDP-17 (frontotemporal dementia and parkinsonism linked to chromosome 17) mutation (Lewis et al., Nature Genetics 25, 402-405 (2000)) were used. To enhance neurodegeneration and neuronal loss, the CUMS (chronic unpredictable mild stress) protocol was performed with male 12 months-old Tg2576 mice for 3 months essentially as described (AbdAlla et al., J. Biol. Chem. 284, 6554-6565 (2009); AbdAlla et al., J. Biol. Chem. 284, 6566-6574 (2009)). […]
For Abeta plaque load quantification by immunohistochemistry, paraffin-embedded brain sections (or cryosections) (8 microm, 10-15 sections/brain taken at 30-50 microm intervals) were prepared from brains isolated from 18-month-old Tg2576 mice (Taconic Biosciences, Rensselaer, N.Y., USA) treated for six months without and with Compound-1 and Compound-4 (8 mg/kg body weight/day in drinking water). […]

dogs = assay: Alertness and appetite of dogs on repeated oral dosing; assay type: in vivo, dog
[1] = tested on: rats subjected to the CUMS protocol; assay: Sucrose preference test (anhedonia) in rats subjected to CUMS; assay type: in vivo, rat; settings: treated during CUMS
Description: The following stimuli were administered each week in a random order: two periods (7 h and 17 h) of 45° cage tilt; soaked cage for 17 h; food deprivation (24 h) and water deprivation (12 h), twice a week; paired housing (17 h); overnight illumination during the dark phase, twice a week; noise (85 dB) in the room for 5 h, twice a week; flashing light (60 flashes/min) for 6 h, three times a week (AbdAlla et al., Biomed. Res. Int. 2015:917156 (2015); El-faramawy et al., Pharmacol. Biochem. Behav. 91, 339-344 (2009)). The sucrose preference test (2% sucrose in water) was done immediately after a period of food and water deprivation.
Symptoms of depression and anhedonia induced by the CUMS protocol as a typical model of depression were determined by the sucrose preference test. For the sucrose preference test, rats (or mice) were trained to consume a sucrose solution (2%), which was put in the cage with a bottle of water. The sucrose consumption was determined at baseline for two weeks before the CUMS protocol (1 test per week, for 1 h, at 9-10 a.m.), and after 4 weeks of CUMS immediately after a period of food (24 h) and water (12 h) deprivation. The ratio of the sucrose-to-water consumption was determined. […] Similarly, the treatment effect of illustrative compounds on prevention of symptoms of depression was assessed by the sucrose preference test. […]

SMILES: c1cc(-c2ccc3c(c2)OCO3)ncn1 [Compound-4, 4-(1,3-benzodioxol-5-yl)pyrimidine]
- Abeta plaque load in hippocampus and frontal cortex (Tg2576 AD mice): significantly retarded the accumulation of Abeta plaques
- appetite (daily food intake) (dogs; dogs, 120, 200 and 300 mg per day): appetite was increased
- alertness (dogs; dogs, as early as 3 days of repeated oral dosing, 120, 200 and 300 mg per day): increased the alertness
- sucrose consumption in sucrose preference test ([1]; 16-month-old rats, 4 weeks CUMS, vs non-stressed control group): not significantly different from the non-stressed control group
- CUMS-induced anhedonia in sucrose preference test ([1]; young rats (aged 4 months)): prevented the development of CUMS-induced anhedonia and symptoms of depression
